Data reported in the supplement of paper PMC8256030.
Values joined by “and” are separate entries in the source; they are usually repeats but may differ in a detail not shown here. Equal values may be shown once. Where a name gives a salt, the structure may show the parent alone. Some of the results follow. Single values are uncertain here, since repeats match poorly.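 HEK293T cells were given each compound shortly before transfection with a reporter in which red mCherry is followed by the SARS-CoV-2 frameshift element and then GFP in the −1 frame, so GFP appears only after frameshifting.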

Tests used:
[1] = tested on: SARS-CoV-2 -1 PRF reporter mCherry-FSE-GFP(-1); assay: mCherry (red) intensity as percent of control; higher = higher upstream reporter expression; conditions: 10 µM; 24 h; HEK293T
[2] = tested on: SARS-CoV-2 -1 PRF reporter mCherry-FSE-GFP(-1); assay: percent effect, decrease of GFP/mCherry ratio (-1 PRF reporter) relative to controls; higher = stronger frameshift inhibition; conditions: 10 µM; 24 h; HEK293T

SMILES | mCherry [1] | percent effect [2]
CCS(=O)(=O)c1cc2cc(C[C@](O)(CC(C)(C)c3ccc(F)cc3C(N)=O)C(F)(F)F)[nH]c2cn1 | 97.1% | -2.64%
C[C@H](N[C@@H](CCc1ccccc1)C(=O)O)C(=O)N1Cc2ccccc2C[C@H]1C(=O)O [quinaprilat] | 107% | -1.38%
CN(CCOc1ccc(CC2SC(=O)NC2=O)cc1)c1ccccn1 (stereo unspecified) | 90.2% | -3.53%
CC1CCN(CCCC(=O)c2ccc(F)cc2)CC1 [melperone] | 120% | -6.88%
CC(C)(N)C(=O)N[C@H](COCc1ccccc1)C(=O)N1CCC2(CC1)CN(S(C)(=O)=O)c1ccccc12 [ibutamoren] | 101% | -3.49%
CC(C)NCC(O)COc1ccc(COCCOC(C)C)cc1 (stereo unspecified) | 114% | 0.466%
Cc1cn[nH]c1 [fomepizole] | 96.2% and 113% | -4.49% and -0.653%
Oc1c(Cl)cc(Cl)c(Cl)c1Cc1c(O)c(Cl)cc(Cl)c1Cl [hexachlorophene] | 27.2% | -10.1%
CC(C)NCC(O)COc1ccc(CCOCC2CC2)cc1 (stereo unspecified) | 101% | -12.3%
c1ccc2[nH]c(-c3cscn3)nc2c1 [tiabendazole] | 107% | -0.228%
C[C@@H]1C[C@H]2[C@@H]3C[C@H](F)C4=CC(=O)C=C[C@]4(C)[C@@]3(F)[C@@H](O)C[C@]2(C)[C@@]1(O)C(=O)COC(=O)C(C)(C)C [Locorten] | 105% | -2.8%
CCCCC/C=C\C/C=C\C/C=C\CCCCC(=O)O [gamolenic acid] | 79.6% | -1.79%
CN1CCN2c3ccccc3Cc3ccccc3C2C1 (stereo unspecified) | 98.3% | -0.631%
O=[N+]([O-])c1ccc(/C=N/O)o1 [nifuroxime] | 106% | -3.33%
CCC(C)C(C)C1Nc2cc(Cl)c(S(N)(=O)=O)cc2S(=O)(=O)N1 (stereo unspecified) [mebutizide] | 75.6% | 3.88%
Nc1ncnc2c1ncn2[C@@H]1O[C@H](COP(=O)(O)O)[C@@H](O)[C@H]1O [adenosine phosphate] | 138% and 116% and 129% | 3.08% and -4.08% and -1.41%
C=C(NC(=O)c1csc(-c2nc3c(cc2O)-c2nc(cs2)C(=O)NC(C(C)O)C(=O)N/C(=C\C)c2nc(cs2)C(=O)NC2CC(O)C(=O)OCc4cccc5[nH]c(c(C)c45)C(=O)SCC(NC(=O)c4csc2n4)c2nc-3cs2)n1)C(N)=O (stereo unspecified) [nosiheptide] | 76.7% | -14.9%
C#CCN(C)Cc1ccccc1 [pargyline] | 102% | -7.35%
C=CCCCCCCCCC(=O)[O-].C=CCCCCCCCCC(=O)[O-].[Zn+2] | 121% | -1.66%
CC(C)OC(=O)[C@@H]1CC2=CC(=O)CC[C@]2(C)[C@H]2CC[C@@]3(C)[C@@H](CC[C@@]34CCC(=O)O4)[C@H]12 [dicirenone] | 104% | 0.246%

In the list so far, these contain four or more nitrogen atoms.
SMILES | mCherry [1] | percent effect [2]
CC(C)(N)C(=O)N[C@H](COCc1ccccc1)C(=O)N1CCC2(CC1)CN(S(C)(=O)=O)c1ccccc12 [ibutamoren] | 101% | -3.49%
Nc1ncnc2c1ncn2[C@@H]1O[C@H](COP(=O)(O)O)[C@@H](O)[C@H]1O [adenosine phosphate] | 138% and 116% and 129% | 3.08% and -4.08% and -1.41%
C=C(NC(=O)c1csc(-c2nc3c(cc2O)-c2nc(cs2)C(=O)NC(C(C)O)C(=O)N/C(=C\C)c2nc(cs2)C(=O)NC2CC(O)C(=O)OCc4cccc5[nH]c(c(C)c45)C(=O)SCC(NC(=O)c4csc2n4)c2nc-3cs2)n1)C(N)=O (stereo unspecified) [nosiheptide] | 76.7% | -14.9%

Continued.

SMILES | mCherry [1] | percent effect [2]
CN1CCOC(c2ccccc2)c2ccccc2C1 (stereo unspecified) [nefopam] | 177% | 5.46%
COc1ccccc1N1CCN(CC(O)COc2cc(OC)c(OC)c(OC)c2)CC1 (stereo unspecified) [enciprazine] | 62.2% | 4.17%
CC(C)/N=c1\cc2n(-c3ccc(Cl)cc3)c3ccccc3nc-2cc1Nc1ccc(Cl)cc1 [clofazimine] | 115% | 1.31% and -1.39%
CC(C(=O)O)c1ccc(CC2CCCC2=O)cc1 (stereo unspecified) | 108% | -4.34%
CS(=O)(=O)NC(=O)CCC/C=C\C[C@H]1C(=O)C[C@@H](O)[C@@H]1/C=C/[C@@H](O)COc1ccccc1 [sulprostone] | 63.1% | -11.1%
CCN(CC)CCOc1cc2oc(=O)cc(C)c2cc1OCCN(CC)CC [oxamarin] | 59.9% | 2.71%
CC(=O)Oc1ccccc1C(=O)O | 113% | -9.09%
CCCC1O[C@@H]2C[C@H]3[C@@H]4CCC5=CC(=O)C=C[C@]5(C)[C@H]4[C@@H](O)C[C@]3(C)[C@]2(C(=O)CO)O1 (stereo partly specified) [budesonide] | 115% | -1.26%
CCOC(=O)c1cnc2cc(OCC(C)C)c(OCC(C)C)cc2c1O [buquinolate] | 81.2% | -7.52%
CCCC1([C@H](O)C/C=C/[C@H]2[C@H](O)CC(=O)[C@@H]2CCCCCCC(=O)OC)CCC1 [(R)-Butaprost] | 115% | -1.64%
CN(C)c1cc(NC(=O)CNC(C)(C)C)c(O)c2c1C[C@H]1C[C@H]3[C@H](N(C)C)C(=O)C(C(N)=O)=C(O)[C@@]3(O)C(=O)C1=C2O | 102% | -1.49%
Cc1c(C)c2c(c(C)c1O)CCC(C)(CCCC(C)CCCC(C)CCCC(C)C)O2 (stereo unspecified) [Vitamin E] | 93.6% | -1.99%
O=C(O)c1cc(=O)[nH]c(=O)[nH]1 [orotic acid] | 108% | -2.86%
O=C(O)c1cc(-c2ccccc2)nc2ccccc12 [cinchophen] | 97.9% | -0.926%
c1ccc(CN(CCN2CCCC2)c2ccccc2)cc1 [histapyrrodine] | 71.1% | -4.68%
c1ccc(C2CN3CCSC3=N2)cc1 (stereo unspecified) | 99.5% | 4.04%
OC[C@@H](O)[C@@H](O)[C@H](O)[C@H](O)CO | 96.3% | -8.38%
Nc1cccc(-n2ccccc2=O)c1 [amphenidone] | 73.4% | -8.99%
Cc1ccccc1C(=O)Nc1ccc(C(=O)N2CCCC(N(C)C)c3ccccc32)cc1 (stereo unspecified) [mozavaptan] | 27.9% | -8.57%
CC(C[N+](C)(C)C)OC(N)=O (stereo unspecified) | 95.1% | 2.95%

SMILES | mCherry [1] | percent effect [2]
NC(=O)c1[nH]nc([C@@H]2O[C@H](CO)[C@@H](O)[C@H]2O)c1O [pirazofurin] | 56.6% | 7.65%
CCOc1ccccc1OC(c1ccccc1)C1CNCCO1 (stereo unspecified) [reboxetine] | 120% | -1.72%
CCCCc1ncc(/C=C(\Cc2cccs2)C(=O)O)n1Cc1ccc(C(=O)O)cc1 [eprosartan] | 102% and 90.3% | -0.0909% and 3.04%
COc1cc([S+](C)[O-])ccc1-c1nc2cccnc2[nH]1 (stereo unspecified) [sulmazole] | 103% | 0.558%
Cc1c(C(=O)Nc2ccc(N3C[C@@H](C)O[C@@H](C)C3)nc2)cccc1-c1ccc(OC(F)(F)F)cc1 [Sonidegib] | 106% | 0.259%
CCC(=O)O[C@]1(C(=O)CCl)[C@@H](C)C[C@H]2[C@@H]3CCC4=CC(=O)C=C[C@]4(C)[C@@]3(F)[C@@H](O)C[C@@]21C | 140% | 2.81%
C[N+]1(C)[C@@H]2C[C@@H](OC(=O)C(O)(c3cccs3)c3cccs3)C[C@H]1[C@@H]1O[C@@H]12 [Spiriva] | 100% | -1%
CC(C)(C)c1ccc(C(O)CCCN2CCC(C(O)(c3ccccc3)c3ccccc3)CC2)cc1 (stereo unspecified) [terfenadine] | 111% and 98.3% | 0.0353% and -1.11%
CC(O)CN(CCN(CC(C)O)CC(C)O)CC(C)O (stereo unspecified) [edetol] | 110% | 1.86%
CN1C(CCl)Nc2cc(Cl)c(S(N)(=O)=O)cc2S1(=O)=O (stereo unspecified) [methyclothiazide] | 106% | 2.15%
Cc1c(O)cccc1C(=O)N[C@@H](CSc1ccccc1)[C@H](O)CN1C[C@H]2CCCC[C@H]2C[C@H]1C(=O)NC(C)(C)C [Nelfinavir mesylate] | 78.5% | -4.38%
NS(=O)(=O)c1cc(C(=O)NN2C[C@@H]3[C@H]4CC[C@H](C4)[C@@H]3C2)ccc1Cl [tripamide] | 98.5% | 0.129%
CCOC(=O)CN[C@@H](C(=O)N1CC[C@H]1C(=O)NCc1ccc(/C(N)=N\O)cc1)C1CCCCC1 [ximelagatran] | 88% | -0.617%
Clc1ccc2nsnc2c1NC1=NCCN1 [tizanidine] | 20.6% | -8.65%
Cc1nccn1CC1CCc2c(c3ccccc3n2C)C1=O (stereo unspecified) | 96.3% | -5.91%
Cc1ccc2c(Br)cc(Br)c(O)c2n1 [broquinaldol] | 76.1% | 10.5%
CN(Cc1cnc2nc(N)nc(N)c2n1)c1ccc(C(=O)NC(CCC(=O)O)C(=O)O)cc1 (stereo unspecified) | 124% | -2.81%
CCCCOc1ccc(NC(=S)Nc2ccc(N(C)C)cc2)cc1 [N-(4-butoxyphenyl)-N'-[4-(dimethylamino)phenyl]thiourea] | 100% | -4.15%
